Data as given in PubChem BioAssay AID1224830 (NIAID, 2016)
In all, the deposit lists about 18,000 reagents; below is an unselected part. In the full data, about 2,900 (16%) are marked active. 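Calls are made per well; low scores hint the gene aids the LPS response, high scores that it dampens it.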 Repeated entries: four replicate wells of each siRNA pool.

- Test: 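Regulators of TLR4 signalling towards TNF-alpha in macrophage-like cells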 (primary screen)
- System: human THP-1 monocytic leukaemia cells, TNF dual-luciferase reporter clone, PMA-differentiated to macrophage-like cells
- Knock-down reagent: siRNA pool against human genes, 50 nM
- Time to read-out: LPS for 4 h, given about 3 days after siRNA transfection
- Conditions: bacterial LPS (TLR4 ligand), 10 ng/ml
- Read-out: 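TNF firefly reporter luminescence divided by renilla, normalised to the plate median, then turned into a robust z-score for each replicate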
- Reading the numbers: TNF reporter robust z-score: higher = stronger TNF reporter response to LPS
- Hit rule: 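a well is active when its z-score exceeds 2.8 or falls below -1.5; control wells carry no call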

Gene,TNF reporter robust z-score,call
ARCN1 (archain 1 coat protein complex I subunit delta),-1.89,active
ARCN1 (archain 1 coat protein complex I subunit delta),-1.66,active
ARCN1 (archain 1 coat protein complex I subunit delta),-1.53,active
ARCN1 (archain 1 coat protein complex I subunit delta),-1.9,active
DEAF1 (DEAF1 transcription factor),0.81,inactive
DEAF1 (DEAF1 transcription factor),0.47,inactive
DEAF1 (DEAF1 transcription factor),1.2,inactive
DEAF1 (DEAF1 transcription factor),2.95,active
SOX11 (SRY-box transcription factor 11),-0.23,inactive
SOX11 (SRY-box transcription factor 11),-0.16,inactive
SOX11 (SRY-box transcription factor 11),-0.17,inactive
SOX11 (SRY-box transcription factor 11),-0.06,inactive
FXYD4 (FXYD domain containing ion transport regulator 4),-0.08,inactive
FXYD4 (FXYD domain containing ion transport regulator 4),0.21,inactive
FXYD4 (FXYD domain containing ion transport regulator 4),-0.48,inactive
FXYD4 (FXYD domain containing ion transport regulator 4),0.75,inactive
RTL3 (retrotransposon Gag like 3),-0.18,inactive
RTL3 (retrotransposon Gag like 3),0,inactive
RTL3 (retrotransposon Gag like 3),0.45,inactive
RTL3 (retrotransposon Gag like 3),1.35,inactive
POF1B (POF1B actin binding protein),-0.78,inactive
POF1B (POF1B actin binding protein),-0.75,inactive
POF1B (POF1B actin binding protein),-1.04,inactive
POF1B (POF1B actin binding protein),-0.99,inactive
LRRC40 (leucine rich repeat containing 40),-1.94,active
LRRC40 (leucine rich repeat containing 40),-1.45,inactive
LRRC40 (leucine rich repeat containing 40),-1.6,active
WDR81 (WD repeat domain 81),-0.82,inactive
WDR81 (WD repeat domain 81),-1.26,inactive
WDR81 (WD repeat domain 81),-1.12,inactive
WDR81 (WD repeat domain 81),-0.96,inactive
RNF13 (ring finger protein 13),1.5,inactive
RNF13 (ring finger protein 13),2.12,inactive
RNF13 (ring finger protein 13),1.44,inactive
RNF13 (ring finger protein 13),2.03,inactive
SCOC (short coiled-coil protein),0.12,inactive
SCOC (short coiled-coil protein),-0.2,inactive
SCOC (short coiled-coil protein),-1.08,inactive
SCOC (short coiled-coil protein),-0.05,inactive
SERPINB12 (serpin family B member 12),-0.48,inactive
SERPINB12 (serpin family B member 12),-0.52,inactive
SERPINB12 (serpin family B member 12),-0.25,inactive
SERPINB12 (serpin family B member 12),-1.39,inactive
IFI44 (interferon induced protein 44),0.15,inactive
IFI44 (interferon induced protein 44),0.23,inactive
IFI44 (interferon induced protein 44),1.36,inactive
IFI44 (interferon induced protein 44),0.57,inactive
DNTTIP2 (deoxynucleotidyltransferase terminal interacting protein 2),-0.04,inactive
DNTTIP2 (deoxynucleotidyltransferase terminal interacting protein 2),-0.84,inactive
DNTTIP2 (deoxynucleotidyltransferase terminal interacting protein 2),2,inactive
DNTTIP2 (deoxynucleotidyltransferase terminal interacting protein 2),2.23,inactive
MAPK11 (mitogen-activated protein kinase 11),2.62,inactive
MAPK11 (mitogen-activated protein kinase 11),-0.67,inactive
MAPK11 (mitogen-activated protein kinase 11),0.79,inactive
MAPK11 (mitogen-activated protein kinase 11),1.88,inactive
"RNFT2 (ring finger protein, transmembrane 2)",-0.4,inactive
"RNFT2 (ring finger protein, transmembrane 2)",-1.1,inactive
"RNFT2 (ring finger protein, transmembrane 2)",0.46,inactive
"RNFT2 (ring finger protein, transmembrane 2)",2.77,inactive
TMEM154 (transmembrane protein 154),-0.18,inactive
TMEM154 (transmembrane protein 154),-0.59,inactive
TMEM154 (transmembrane protein 154),-0.88,inactive
TMEM154 (transmembrane protein 154),-0.55,inactive
KRTAP19-7 (keratin associated protein 19-7),1.06,inactive
KRTAP19-7 (keratin associated protein 19-7),1.16,inactive
KRTAP19-7 (keratin associated protein 19-7),1.36,inactive
KRTAP19-7 (keratin associated protein 19-7),0.49,inactive
COL15A1 (collagen type XV alpha 1 chain),-0.41,inactive
COL15A1 (collagen type XV alpha 1 chain),-0.65,inactive
COL15A1 (collagen type XV alpha 1 chain),0.37,inactive
COL15A1 (collagen type XV alpha 1 chain),-0.27,inactive
SHE (Src homology 2 domain containing E),0.4,inactive
SHE (Src homology 2 domain containing E),0.15,inactive
SHE (Src homology 2 domain containing E),-0.7,inactive
SHE (Src homology 2 domain containing E),0.46,inactive
